# Test results as given in PubChem BioAssay AID2685 (National Center for Advancing Translational Sciences (NCATS), 2010).
# The other results are listed elsewhere or left out. Shown are side measurements of this screen, not its main read-out; they come without a call. The list favours compounds with an active or inconclusive main result. Potencies come from curve fits of mixed quality, noted in brackets.
# Test: qHTS Assay for Lipid Storage Modulators in Drosophila S3 Cells;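 on cell number change: cells counted by Cell Tracker Red CMTPX staining in the red channel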
# Conditions: BODIPY lipid droplet fluorescence, 18-24 h; for cell number change: measured here: cell count max response, cells fed with added oleic acid
# Summary of the method: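 Drosophila S3 cells got compounds at several concentrations plus oleic acid (400 uM solution). Laser-scanning cytometry with 488 nm excitation read lipid droplets at 500-530 nm and cells at 575-640 nm. Percent activity was relative to 20 uM Triacsin C.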
# [1] = measured here: lipid fluorescence (Fed channel) AC50, cells fed with added oleic acid
# [2] = measured here: cell number channel AC50, cells fed with added oleic acid
Compound,cell number change,AC50 [1],AC50 [2]
Cc1c(C(=O)OCc2ccccc2)[nH]c2c1C(=O)CC(c1ccco1)C2 (centres undefined),-36.5%,"0.461 µM [rising, full curve, poor fit]",
Cc1ccc(NC(=O)c2cc(S(=O)(=O)N3CCOCC3)cs2)cc1,18.3%,,
Cc1ccc(C(=O)N/C(=C\c2ccco2)C(=O)NCCN2CCCCC2)cc1C,-12.8%,,
CCOCCOC(=O)Cn1cnc2scc(-c3ccc(C)cc3)c2c1=O,-16.2%,"6.51 µM [rising, single point]",
Cc1cc(C)nc(SCc2ccc(C(=O)N/N=C/C3CCCCC3)cc2)n1,32.4%,"2.31 µM [rising, full curve]","1.46 µM [rising, full curve]"
CC(C)n1cc(/C=N/NC(=O)COc2cccc3cccnc23)c2ccccc21,-58.7%,"29.1 µM [falling, single point]","18.4 µM [falling, single point]"
NC(=O)CC(NC(=O)Cc1ccc(Cl)cc1)c1ccc(NC2CC3CCC2C3)c([N+](=O)[O-])c1 (centres undefined),-41.9%,"1.64 µM [falling, partial curve, poor fit]","25.9 µM [falling, single point]"
COc1cc(C(C)=O)ccc1OCC(=O)Nc1ccccc1N1CCCCC1,16.6%,,"4.11 µM [rising, single point]"
O=C(CSC(=S)N1CCOCC1)Nc1ncc2c(n1)CC(c1ccco1)CC2=O (centres undefined),33.6%,"25.9 µM [rising, partial curve]","0.651 µM [rising, full curve, poor fit]"
Cc1cc(C(=O)Nc2ccc(N3CCOCC3)c3nonc23)ccc1[N+](=O)[O-],49.1%,"0.58 µM [falling, single point]","25.9 µM [rising, single point]"
CC1=C(C(=O)N2CCCC(N3CCN(c4cccc(Cl)c4)CC3)C2)OCCO1 (centres undefined),18.5%,"18.4 µM [rising, partial curve, poor fit]",
c1ccc(NCc2cccc3ccccc23)nc1,-4.12%,"0.517 µM [rising, partial curve, poor fit]",
CC1=C/C(=N\NC(=S)NCCc2ccccc2)CC(C)(C)C1,36.1%,,
CCN(CC)S(=O)(=O)c1cccc(NC(=O)c2cc(-c3cccs3)nn2-c2ccccc2)c1,,"0.058 µM [falling, full curve, poor fit]",
CCc1c(C)nc(N2CCN(c3ccc(Cl)cc3)CC2)[nH]c1=O,18.2%,,
O=C(CNC(=O)C12CC3CC(CC(C3)C1)C2)N1CCN(S(=O)(=O)c2cccs2)CC1,-66.7%,,"29.1 µM [falling, single point]"
Cc1cc(C)n(CC(=O)N/N=C/c2ccc(C)o2)n1,-3.17%,"0.13 µM [falling, full curve, poor fit]",
Cc1nn(-c2ccccc2)c(C)c1C(=O)OCC(=O)NC12CC3CC(CC(C3)C1)C2,-36.4%,"29.1 µM [falling, single point]","29.1 µM [falling, single point]"
CC(=O)c1cc(CN2CCN(C3CCN(C(C)C)CC3)C(CCO)C2)cs1 (centres undefined),-20.4%,"29.1 µM [falling, single point]",

# Grouped by structure, the compounds so far containing nitrogen in an aromatic ring
Compound,cell number change,AC50 [1],AC50 [2]
Cc1c(C(=O)OCc2ccccc2)[nH]c2c1C(=O)CC(c1ccco1)C2 (centres undefined),-36.5%,"0.461 µM [rising, full curve, poor fit]",
CCOCCOC(=O)Cn1cnc2scc(-c3ccc(C)cc3)c2c1=O,-16.2%,"6.51 µM [rising, single point]",
Cc1cc(C)nc(SCc2ccc(C(=O)N/N=C/C3CCCCC3)cc2)n1,32.4%,"2.31 µM [rising, full curve]","1.46 µM [rising, full curve]"
CC(C)n1cc(/C=N/NC(=O)COc2cccc3cccnc23)c2ccccc21,-58.7%,"29.1 µM [falling, single point]","18.4 µM [falling, single point]"
O=C(CSC(=S)N1CCOCC1)Nc1ncc2c(n1)CC(c1ccco1)CC2=O (centres undefined),33.6%,"25.9 µM [rising, partial curve]","0.651 µM [rising, full curve, poor fit]"
Cc1cc(C(=O)Nc2ccc(N3CCOCC3)c3nonc23)ccc1[N+](=O)[O-],49.1%,"0.58 µM [falling, single point]","25.9 µM [rising, single point]"
c1ccc(NCc2cccc3ccccc23)nc1,-4.12%,"0.517 µM [rising, partial curve, poor fit]",
CCN(CC)S(=O)(=O)c1cccc(NC(=O)c2cc(-c3cccs3)nn2-c2ccccc2)c1,,"0.058 µM [falling, full curve, poor fit]",
CCc1c(C)nc(N2CCN(c3ccc(Cl)cc3)CC2)[nH]c1=O,18.2%,,
Cc1cc(C)n(CC(=O)N/N=C/c2ccc(C)o2)n1,-3.17%,"0.13 µM [falling, full curve, poor fit]",
Cc1nn(-c2ccccc2)c(C)c1C(=O)OCC(=O)NC12CC3CC(CC(C3)C1)C2,-36.4%,"29.1 µM [falling, single point]","29.1 µM [falling, single point]"

# Continued.

Compound,cell number change,AC50 [1],AC50 [2]
CC(Oc1ccc(C(C)(C)C)cc1)c1ccnc2nc(/N=C/N(C)C)nn12 (centres undefined),-38.4%,,"0.206 µM [falling, full curve, poor fit]"
CN(C)C(=O)c1c([N+](=O)[O-])ncn1C,-0.874%,"25.9 µM [falling, partial curve, poor fit]",
CCOC(=O)N1CCN(c2c(N3CC=C(c4ccccc4)CC3)c(=O)c2=O)CC1,15.3%,"16.4 µM [rising, partial curve]",
CC1=CC(C)(C)Nc2ccc(OC(=O)C(C)N3C(=O)c4ccccc4C3=O)cc21 (centres undefined),,"6.51 µM [rising, single point]",
Cc1cc(=O)oc2c(C)c(OCC(=O)N3CCN(c4cccc(Cl)c4)CC3)ccc12,15.3%,"6.51 µM [rising, single point]",
COc1ccc(C(CNC(=O)c2oc3ccc(F)cc3c2C)N2CCCCC2)cc1 (centres undefined),-0.895%,"0.00651 µM [rising, full curve, poor fit]",
CCCC(=O)Nc1ccc(Cl)c(NC(=O)C(C)(C)C)c1,0.119%,"6.51 µM [rising, single point]",
O=C(c1ccco1)N1CCN(CCOc2ccccc2)CC1,-25.4%,"1.64 µM [falling, full curve, poor fit]","2.91 µM [falling, full curve, poor fit]"
CC1CCCCN1C(=O)C1COc2ccccc2O1 (centres undefined),16.7%,"2.59 µM [falling, full curve, poor fit]",
Cc1cc(/C=c2\sc3nc4ccccc4n3c2=O)c(C)n1-c1ccc(C(=O)O)cc1,37.9%,"0.00517 µM [falling, full curve, poor fit]",
c1cc2ccc3ccc(-n4cnnn4)c4ccc(c1)c2c34,44.1%,"29.1 µM [rising, single point]","16.4 µM [rising, single point]"
Cc1ccc(N2C(=O)N(CC(=O)Nc3cc(Cl)ccc3C)C(=O)C2C)cc1 (centres undefined),-49%,,"16.4 µM [falling, single point]"
N#Cc1c(NCCN)nc(-c2ccccc2)c2c1CCCC2,,"6.51 µM [rising, partial curve]",
O=C(CN1CCN(C(=O)c2ccccc2)CC1)Nc1cc(S(=O)(=O)N2CCCC2)ccc1Cl,-56.7%,"13 µM [falling, partial curve]","16.4 µM [falling, partial curve, poor fit]"
CC(C)(C)c1ccc(CCC2OCC(CN3CCOCC3)O2)cc1 (centres undefined),-35.9%,"7.31 µM [falling, partial curve]","5.17 µM [falling, partial curve]"
COc1cccc(Cn2nc3c4cc(F)ccc4n(Cc4ccc(F)cc4)cc-3c2=O)c1,50%,"20.6 µM [rising, single point]","0.366 µM [rising, full curve, poor fit]"
CC(C)(C)NC(=O)C(c1ccc(O)cc1)N(C(=O)CCC(=O)Nc1nccs1)c1ccc(F)cc1 (centres undefined),,"0.411 µM [rising, full curve, poor fit]",
O=C(COC(=O)Cc1ccc(F)cc1)NC1CCCC1,22%,,
COc1ccc(NC(=O)C2CCC(C)(C(=O)O)C2(C)C)cc1 (centres undefined),-0.809%,,

Compound,cell number change,AC50 [1],AC50 [2]
CCOc1ccc(NC(=S)NN(C)C(=S)Nc2ccc(OCC)cc2)cc1,21.3%,"2.91 µM [rising, partial curve]",
CC(=O)OCCCN1C(=O)c2ccc(Br)cc2C1=O,-6.66%,"20.6 µM [falling, single point]",
CCN(CC)CC(=O)Nc1c(Br)ccc2c1OCO2,12.6%,"4.11 µM [falling, full curve, poor fit]",
Cc1cc(C)nc(SCC(=O)c2ccc(O)c(O)c2)n1,-40.4%,,"29.1 µM [falling, single point]"
O=C(Cn1ncc2c3ccccc3n(Cc3ccccc3)c2c1=O)NCc1ccccn1,,,"0.517 µM [rising, single point]"
COc1cc2cc(C(c3nnnn3C(C)(C)C)N3CCC(C)CC3)c(=O)[nH]c2cc1OC (centres undefined),29.6%,,
COC(=O)N/N=C\c1ccc(OC/C=C/c2ccccc2)cc1,20%,"1.16 µM [rising, full curve, poor fit]",
COC(=O)c1ccc(Oc2nc(Nc3ccccc3)nc(N(C)C)n2)cc1,-22.4%,"1.46 µM [rising, partial curve]",
O=C(CCC1CCCN(C(=O)c2cccnc2)C1)NCc1ccccc1F (centres undefined),-22.1%,"4.11 µM [falling, partial curve]","0.13 µM [falling, full curve, poor fit]"
O=C(CNc1ccc(F)cc1)N/N=C1\CCCc2ccccc21,,"0.517 µM [rising, full curve]","0.517 µM [rising, full curve]"
C=CCS/C(N)=N\N=C\c1cc(Br)cc([N+](=O)[O-])c1O,-3.72%,"0.00461 µM [falling, full curve, poor fit]",
COc1ccc(CC(=O)OCC(=O)Nc2ncc(Cl)c(C)c2Cl)cc1,-13.8%,"3.66 µM [rising, partial curve, poor fit]","7.31 µM [falling, single point]"
Cc1ccc(S(=O)(=O)N(C)CC(=O)NCCc2c[nH]c3ccccc23)cc1,35.9%,,
COc1ccc(C(CNC(=O)c2oc3cc(Br)ccc3c2C)N2CCCCC2)cc1 (centres undefined),-2.12%,"6.51 µM [rising, partial curve, poor fit]","1.46 µM [rising, partial curve, poor fit]"
COc1ccc(-c2csc3ncnc(NCCN4CCOCC4)c23)cc1,-15.4%,"7.31 µM [falling, partial curve]",
COc1ccc(/C=C2\Sc3ccc(C(=O)N4CCN(Cc5ccccc5)CC4)cc3N(C)C2=O)cc1OC,,"5.8 µM [falling, partial curve]","1.84 µM [falling, partial curve]"
COc1ccc(NC(=O)c2sc(SC)nc2N)cc1,-65.7%,"29.1 µM [falling, single point]","29.1 µM [falling, single point]"
CC1CCc2c(C(=O)Nc3cccc(-c4nn[nH]n4)c3)csc2C1 (centres undefined),33.6%,,"32.6 µM [rising, partial curve, poor fit]"
